Results as given in paper PMC4677692.
Results are given in words; binding and its absence hold for the method and conditions named. Some binding calls cover weakened binding; strength is not graded here.

Amino acid sequences for entries named in this document (tags omitted).
UniProt P93002: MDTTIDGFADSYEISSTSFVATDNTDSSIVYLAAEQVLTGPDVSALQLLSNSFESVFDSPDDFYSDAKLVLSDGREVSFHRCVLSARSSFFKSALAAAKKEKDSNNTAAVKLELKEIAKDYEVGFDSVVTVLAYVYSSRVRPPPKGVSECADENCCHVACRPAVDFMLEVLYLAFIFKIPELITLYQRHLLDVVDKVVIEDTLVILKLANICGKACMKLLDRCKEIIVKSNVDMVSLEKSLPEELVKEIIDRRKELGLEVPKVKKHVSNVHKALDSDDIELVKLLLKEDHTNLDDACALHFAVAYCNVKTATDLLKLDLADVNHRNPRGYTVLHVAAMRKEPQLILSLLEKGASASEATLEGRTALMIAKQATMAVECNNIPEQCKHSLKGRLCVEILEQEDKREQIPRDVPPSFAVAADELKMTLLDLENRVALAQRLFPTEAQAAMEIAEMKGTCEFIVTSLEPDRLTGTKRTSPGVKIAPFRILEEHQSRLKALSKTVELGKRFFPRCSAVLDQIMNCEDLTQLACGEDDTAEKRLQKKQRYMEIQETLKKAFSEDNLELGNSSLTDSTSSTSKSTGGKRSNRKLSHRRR

Target: T1, TGA2 (Arabidopsis) (UniProt P43273)
T1 sequence: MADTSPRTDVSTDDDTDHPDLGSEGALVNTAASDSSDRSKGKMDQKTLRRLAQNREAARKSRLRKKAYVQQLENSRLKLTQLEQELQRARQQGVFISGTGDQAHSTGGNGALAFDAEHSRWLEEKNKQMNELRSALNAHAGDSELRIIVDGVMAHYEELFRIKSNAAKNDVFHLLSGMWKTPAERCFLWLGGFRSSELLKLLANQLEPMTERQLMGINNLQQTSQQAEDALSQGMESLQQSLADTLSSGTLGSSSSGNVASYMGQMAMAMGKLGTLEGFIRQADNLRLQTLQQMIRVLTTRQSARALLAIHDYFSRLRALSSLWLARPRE
Test: two-hybrid; yeast strain SFY526 with Gal4RE::beta-Gal reporter (four copies of the Gal4-responsive element); Gal4 DNA-binding domain and activation domain fusions; qualitative beta-galactosidase assay

binding: binds
Substance: nonexpressor of pathogenesis-related genes 1 (NPR1) (from UniProt P93002 1-593)
